Here are results for 24 sequences from article doi:10.1101/2022.06.27.497698.

For at least one entry, the source does not settle the construct or the ends of the probe. For some of these results: Negatives hold for the conditions tested. At least one verdict was read from the data and is not stated in words by the source. A weaker result is weaker than the reference pair of the same experiment.

One data set relates to RsmQ (Pseudomonas fluorescens SBW25 plasmid pQBR103). The data set can be described thus: SPR.
Conditions: not given
For “GCCCTGTGTCCACGGATTGGCACAACCTACCCTACGTCCTCCTGC [RsmZ_26to50]”, the binding result is “binds”.
The same measure, in the same setting: in the case of “CAAGACACCACAGAGCAGCACCTACCCTACGTCCTCCTGC [NoBind_NoHP_RC]” it was “no binding”; in that of “CAAGACACCCCAGAGCAGCACCTACCCTACGTCCTCCTGC [NoBind_NoHP_RC_2]”, “no binding”; in that of “ATGGACGTCGCGCAGGAAGCGCAAACCTACCCTACGTCCTCCTGC [RsmY_1to25]”, “binds”.

The data set is the same for the next values; noted with them: 100 nM RsmQ.
On to “CCGCGCACTGAAGCGCAAACCCTACCCTACGTCCTCCTGC [FullBind_ACTGA_HP]”, for which the binding result was “binds more weakly”.
On to “CCGCGCACGTAAGCGCAAACCCTACCCTACGTCCTCCTGC [FullBind_ACGTA_HP]”, for which the binding result is on record as “binds more weakly”.
Still for that read-out and setting: then “CCGCGCACCAAGCGCAAACCCTACCCTACGTCCTCCTGC [NoBind_HP_RC]”, with “no binding”; and “CCGCGCACGGTAGCGCAAACCCTACCCTACGTCCTCCTGC [FullBind_ACGGT_HP]”, with “binds more weakly”; and “CCGCGCAGGCAGCGCAAACCCTACCCTACGTCCTCCTGC [Bind_GGC_HP]”, with “binds more weakly”.
On the same count and under the same terms, in the case of “CCGCGCACGCAAGCGCAAACCCTACCCTACGTCCTCCTGC [FullBind_ACGCA_HP]” it was “binds more weakly”; in that of “CCGCGCAGTAAGCGCAAACCCTACCCTACGTCCTCCTGC [Bind_GTA_HP]”, “binds more weakly”; in that of “CCGCGCAGGAAGCGCAAACCCTACCCTACGTCCTCCTGC [Bind_HP_RC]”, “binds”.
Regarding “CCGCGCACGGAAGCGCAAACCCTACCCTACGTCCTCCTGC [Full_Bind_HP_RC]”, the binding result is reported as “binds”.
Same read-out and setting: then “CCGCGCACGGCAGCGCAAACCCTACCCTACGTCCTCCTGC [FullBind_ACGGC_HP]”, with “binds more weakly”; and “CCGCGCAGGTAGCGCAAACCCTACCCTACGTCCTCCTGC [Bind_GGT_HP]”, with “binds more weakly”.
Same read-out and setting: in the case of “CCGCGCACCCAGCGCAAACCCTACCCTACGTCCTCCTGC [NoBind_HP_RC_2]” it was “no binding”; in that of “CCGCGCATGAAGCGCAAACCCTACCCTACGTCCTCCTGC [Bind_TGA_HP]”, “binds more weakly”.
Same read-out and setting: in the case of “CCGCGCACCGAAGCGCAAACCCTACCCTACGTCCTCCTGC [FullBind_ACCGA_HP]” it was “binds more weakly”; in that of “CCGCGCAGCAAGCGCAAACCCTACCCTACGTCCTCCTGC [Bind_GCA_HP]”, “binds more weakly”; in that of “CCGCGCACGAAGCGCAAACCCTACCCTACGTCCTCCTGC [Bind_CGA_HP]”, “binds more weakly”.

Still in this data set, the particulars now being: quickly dissociated.
Consider “CAGGAACGGACAGAGCCCTACCCTACGTCCTCCTGC [Full_Bind_NoHP_RC]”, for which the binding result is “binds more weakly”.
As for “CAGGACAGGACAGAGCCCTACCCTACGTCCTCCTGC [Bind_NoHP_RC]”, the binding result is “binds more weakly”.

The same data set, now with this note: slight preference, 100 nM RsmQ.
As for “CCGCGCAGGGAAGCGCAAACCCTACCCTACGTCCTCCTGC [FullBind_AGGGA_HP]”, the binding result is “binds”.
Still for that read-out and setting: in the case of “CCGCGCATGGAAGCGCAAACCCTACCCTACGTCCTCCTGC [FullBind_ATGGA_HP]” it was “binds”.

The test system of the next data set is RsmQ H43A (Pseudomonas fluorescens SBW25 plasmid pQBR103). The data set can be described thus: SPR. The conditions noted are these: 100 nM protein.
For the sequence “CCGCGCAGGAAGCGCAAACCCTACCCTACGTCCTCCTGC [Bind_HP_RC]”, the binding result is given as “binds more weakly”.
Still for that read-out and setting: then “CCGCGCACGGAAGCGCAAACCCTACCCTACGTCCTCCTGC [Full_Bind_HP_RC]”, with “binds more weakly”.

In a further data set the test system is RsmQ R44A (Pseudomonas fluorescens SBW25 plasmid pQBR103). The data set can be described thus: SPR. As to conditions: 100 nM protein.
As for “CCGCGCAGGAAGCGCAAACCCTACCCTACGTCCTCCTGC [Bind_HP_RC]”, the binding result is “binds more weakly”.
The same measure, in the same setting: in the case of “CCGCGCACGGAAGCGCAAACCCTACCCTACGTCCTCCTGC [Full_Bind_HP_RC]” it was “binds more weakly”.
